These are yes or no findings as the source states them, for the method shown. Some results given as binding are weak or reduced against the parent protein; the word gives no strength.
Columns and labels:
[1] = molecular target: sLRP2, the entire second ligand-binding domain of human LRP1 (human) (UniProt Q07954); experiment: dot blot, LRP binding domain 2 on PVDF, overlay, antibody and chemiluminescent detection
[2] = molecular target: sLRP2, the entire second ligand-binding domain of human LRP1 (human) (UniProt Q07954); experiment: ligand blot, sLRP2 spotted on membrane, detection with anti-RAP antibody

The chains behind the UniProt entries cited, without tags or fusion partners. Where a name states a change or a piece, a line headed by the entry shows the natural chain unless it says otherwise. Residues count along the entry.
UniProt Q07954, residues 806-1183: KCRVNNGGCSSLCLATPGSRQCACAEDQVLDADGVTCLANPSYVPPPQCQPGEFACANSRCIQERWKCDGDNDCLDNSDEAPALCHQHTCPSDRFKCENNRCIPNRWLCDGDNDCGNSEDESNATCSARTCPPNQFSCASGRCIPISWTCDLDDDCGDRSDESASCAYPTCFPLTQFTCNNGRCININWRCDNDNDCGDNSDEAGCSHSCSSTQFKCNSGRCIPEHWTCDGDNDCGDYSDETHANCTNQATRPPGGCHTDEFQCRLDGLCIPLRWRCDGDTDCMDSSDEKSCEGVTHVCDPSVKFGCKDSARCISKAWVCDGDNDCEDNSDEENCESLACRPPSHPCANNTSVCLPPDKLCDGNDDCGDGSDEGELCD
UniProt P30533: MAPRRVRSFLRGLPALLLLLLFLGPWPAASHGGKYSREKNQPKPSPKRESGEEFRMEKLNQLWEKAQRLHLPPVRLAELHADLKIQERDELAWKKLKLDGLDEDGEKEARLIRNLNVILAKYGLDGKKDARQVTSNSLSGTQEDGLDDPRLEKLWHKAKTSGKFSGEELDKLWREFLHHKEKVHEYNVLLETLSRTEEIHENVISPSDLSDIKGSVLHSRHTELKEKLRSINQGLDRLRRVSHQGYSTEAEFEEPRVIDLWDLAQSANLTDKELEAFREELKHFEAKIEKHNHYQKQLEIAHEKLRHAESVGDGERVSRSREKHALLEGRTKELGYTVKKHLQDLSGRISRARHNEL

binding [1]: binds | binding [2]: binds
Substance: receptor-associated protein (RAP) (from UniProt P30533 35-354) (ligand)

Source: patent US20050042227A1
